The values below come from PMC7738986.

No constants are given. Whether binding was seen depends on the method and setting. In cells and extracts the contact can be indirect. Some binding calls cover weakened binding; strength is not graded here.

The target in this assay is T1, USP43 protein (over-expressed) (UniProt Q70EL4).
T1 sequence: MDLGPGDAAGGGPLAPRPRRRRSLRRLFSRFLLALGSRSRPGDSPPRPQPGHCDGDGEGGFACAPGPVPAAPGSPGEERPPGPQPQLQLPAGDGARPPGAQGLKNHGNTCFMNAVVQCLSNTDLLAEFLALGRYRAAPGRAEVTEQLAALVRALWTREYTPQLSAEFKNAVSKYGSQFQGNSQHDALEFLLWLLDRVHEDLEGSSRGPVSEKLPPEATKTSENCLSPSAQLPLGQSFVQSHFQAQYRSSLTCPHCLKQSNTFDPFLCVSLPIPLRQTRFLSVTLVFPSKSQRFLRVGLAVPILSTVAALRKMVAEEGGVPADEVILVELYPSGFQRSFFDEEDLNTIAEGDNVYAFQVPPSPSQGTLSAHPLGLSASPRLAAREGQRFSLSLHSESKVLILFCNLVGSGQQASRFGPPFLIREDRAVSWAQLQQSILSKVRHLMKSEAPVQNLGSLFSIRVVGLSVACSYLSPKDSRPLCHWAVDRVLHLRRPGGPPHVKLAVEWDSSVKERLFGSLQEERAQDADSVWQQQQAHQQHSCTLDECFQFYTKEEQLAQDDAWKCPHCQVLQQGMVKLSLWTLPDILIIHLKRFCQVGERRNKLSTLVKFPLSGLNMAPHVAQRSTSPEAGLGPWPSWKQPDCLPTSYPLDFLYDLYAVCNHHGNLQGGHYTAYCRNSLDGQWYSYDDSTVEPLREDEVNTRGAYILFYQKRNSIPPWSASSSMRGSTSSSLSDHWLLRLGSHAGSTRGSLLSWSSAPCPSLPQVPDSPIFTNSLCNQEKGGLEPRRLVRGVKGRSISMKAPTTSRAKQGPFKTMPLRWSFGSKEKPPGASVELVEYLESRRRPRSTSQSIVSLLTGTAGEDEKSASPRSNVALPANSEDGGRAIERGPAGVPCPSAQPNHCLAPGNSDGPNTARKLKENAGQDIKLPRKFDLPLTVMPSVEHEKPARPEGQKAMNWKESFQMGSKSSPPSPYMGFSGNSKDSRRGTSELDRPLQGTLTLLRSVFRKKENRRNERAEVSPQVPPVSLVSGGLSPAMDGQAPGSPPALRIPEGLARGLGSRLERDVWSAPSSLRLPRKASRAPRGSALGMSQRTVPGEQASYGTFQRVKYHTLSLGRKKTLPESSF
The experiment in a line: co-IP; forward and reverse co-IP in USP43 overexpression DLD1 cells (text; the legend names 293T cells); lysate (RIPA buffer) incubated 1 h at room temperature with antibody-conjugated magnetic beads.

B1: ZEB1 protein (in USP43 overexpression DLD1 cells) (protein, UniProt P37275 1-1124)
chain: MADGPRCKRRKQANPRRNNVTNYNTVVETNSDSDDEDKLHIVEEESVTDAADCEGVPEDDLPTDQTVLPGRSSEREGNAKNCWEDDRKEGQEILGPEAQADEAGCTVKDDECESDAENEQNHDPNVEEFLQQQDTAVIFPEAPEEDQRQGTPEASGHDENGTPDAFSQLLTCPYCDRGYKRFTSLKEHIKYRHEKNEDNFSCSLCSYTFAYRTQLERHMTSHKSGRDQRHVTQSGCNRKFKCTECGKAFKYKHHLKEHLRIHSGEKPYECPNCKKRFSHSGSYSSHISSKKCISLIPVNGRPRTGLKTSQCSSPSLSASPGSPTRPQIRQKIENKPLQEQLSVNQIKTEPVDYEFKPIVVASGINCSTPLQNGVFTGGGPLQATSSPQGMVQAVVLPTVGLVSPISINLSDIQNVLKVAVDGNVIRQVLENNQANLASKEQETINASPIQQGGHSVISAISLPLVDQDGTTKIIINYSLEQPSQLQVVPQNLKKENPVATNSCKSEKLPEDLTVKSEKDKSFEGGVNDSTCLLCDDCPGDINALPELKHYDLKQPTQPPPLPAAEAEKPESSVSSATGDGNLSPSQPPLKNLLSLLKAYYALNAQPSAEELSKIADSVNLPLDVVKKWFEKMQAGQISVQSSEPSSPEPGKVNIPAKNNDQPQSANANEPQDSTVNLQSPLKMTNSPVLPVGSTTNGSRSSTPSPSPLNLSSSRNTQGYLYTAEGAQEEPQVEPLDLSLPKQQGELLERSTITSVYQNSVYSVQEEPLNLSCAKKEPQKDSCVTDSEPVVNVIPPSANPINIAIPTVTAQLPTIVAIADQNSVPCLRALAANKQTILIPQVAYTYSTTVSPAVQEPPLKVIQPNGNQDERQDTSSEGVSNVEDQNDSDSTPPKKKMRKTENGMYACDLCDKIFQKSSSLLRHKYEHTGKRPHECGICKKAFKHKHHLIEHMRLHSGEKPYQCDKCGKRFSHSGSYSQHMNHRYSYCKREAEERDSTEQEEAGPEILSNEHVGARASPSQGDSDERESLTREEDEDSEKEEEEEDKEMEELQEEKECEKPQGDEEEEEEEEEVEEEEVEEAENEGEEAKTEGLMKDDRAESQASSLGQKVGESSEQVSEEKTNEA
In the case of B1, the binding entry is reported as “binds”.
